At least one compound was matched to its structure with a doubt left.
System: alpha-glucosidase
Test: In vitro inhibition of alpha-glucosidase (colorimetric)
Format: biochemical
Settings: concentration 0.1 g/l; percentage of inhibition vs control solution

For `C[C@H]1O[C@H](O[C@H]2[C@H](O)[C@@H](O)[C@@H](O[C@H]3[C@H](O)[C@@H](O)C(O)O[C@@H]3CO)O[C@@H]2CO)[C@H](O)[C@@H](O)[C@@H]1N[C@H]1C=C(CO)[C@@H](O)[C@H](O)[C@H]1O` (stereo partly shown) [Glucor ™, Acarbose], the “Inhibitory Activity Alpha-glucosidase” value was 100%.
